These are yes or no findings as the source states them, for the method shown. In cells and extracts the contact can be indirect. Binding calls can cover weak binding; strength is not graded here.
Biological target: pep-AKR1C2 (163-aa microprotein encoded by lncAKR1C2), Flag-labelled (human) (UniProt P52895)
Assay: co-IP; anti-Flag immunoprecipitation from cell lysate 48 h or 72 h after treatment; lysis buffer 150 mM KCl, 25 mM Tris-HCl pH 7.4, 5 mM EDTA, 0.5% Triton X-100, 5 mM DTT; antibody overnight at 4 °C, beads 2-4 h at RT, five washes; western blot

Amino acid sequences for entries named in this document (tags omitted). A change or cut given only in a name is not applied to a line headed by its entry.
UniProt P52895: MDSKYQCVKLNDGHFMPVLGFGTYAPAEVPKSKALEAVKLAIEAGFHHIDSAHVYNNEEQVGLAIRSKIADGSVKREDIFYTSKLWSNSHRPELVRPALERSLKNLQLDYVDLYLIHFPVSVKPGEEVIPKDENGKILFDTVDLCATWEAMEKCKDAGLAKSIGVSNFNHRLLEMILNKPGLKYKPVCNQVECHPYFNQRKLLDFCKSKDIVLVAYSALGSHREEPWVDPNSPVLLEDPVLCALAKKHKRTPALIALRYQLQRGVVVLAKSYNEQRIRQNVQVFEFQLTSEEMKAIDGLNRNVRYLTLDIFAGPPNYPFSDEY
UniProt P46937: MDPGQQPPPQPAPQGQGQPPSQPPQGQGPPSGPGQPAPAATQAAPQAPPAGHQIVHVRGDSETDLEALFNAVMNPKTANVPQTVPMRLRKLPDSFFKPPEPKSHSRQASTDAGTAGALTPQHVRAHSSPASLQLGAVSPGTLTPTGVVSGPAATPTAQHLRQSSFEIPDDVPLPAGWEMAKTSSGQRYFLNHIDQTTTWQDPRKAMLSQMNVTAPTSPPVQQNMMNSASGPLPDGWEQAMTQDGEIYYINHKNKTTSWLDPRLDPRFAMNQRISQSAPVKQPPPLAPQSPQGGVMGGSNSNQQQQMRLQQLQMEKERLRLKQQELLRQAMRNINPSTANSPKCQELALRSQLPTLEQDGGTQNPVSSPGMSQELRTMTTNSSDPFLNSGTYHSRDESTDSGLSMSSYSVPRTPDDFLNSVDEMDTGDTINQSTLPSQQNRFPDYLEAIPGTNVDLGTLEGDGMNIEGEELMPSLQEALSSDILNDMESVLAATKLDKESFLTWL

Substance: YAP (Yes-associated protein) (from UniProt P46937 1-504)
- binding: binds
